Experimental data published in paper PMC10234108.

Chains of the proteins cited; added tags and fusions are not shown. Lines headed by an entry give the natural chain unless they say otherwise; changes in a name come on top.
UniProt P61586: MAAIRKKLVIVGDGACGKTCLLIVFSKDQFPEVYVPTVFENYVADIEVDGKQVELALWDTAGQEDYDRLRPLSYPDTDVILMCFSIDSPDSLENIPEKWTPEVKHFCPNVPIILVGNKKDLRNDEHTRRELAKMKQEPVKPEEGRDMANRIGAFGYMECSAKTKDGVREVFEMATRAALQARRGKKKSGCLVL
UniProt P60953: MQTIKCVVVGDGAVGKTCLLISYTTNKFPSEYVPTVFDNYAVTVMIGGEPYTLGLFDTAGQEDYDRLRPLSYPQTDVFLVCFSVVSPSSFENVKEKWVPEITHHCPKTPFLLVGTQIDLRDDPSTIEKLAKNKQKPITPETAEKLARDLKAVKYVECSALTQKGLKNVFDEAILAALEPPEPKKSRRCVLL
UniProt P42768: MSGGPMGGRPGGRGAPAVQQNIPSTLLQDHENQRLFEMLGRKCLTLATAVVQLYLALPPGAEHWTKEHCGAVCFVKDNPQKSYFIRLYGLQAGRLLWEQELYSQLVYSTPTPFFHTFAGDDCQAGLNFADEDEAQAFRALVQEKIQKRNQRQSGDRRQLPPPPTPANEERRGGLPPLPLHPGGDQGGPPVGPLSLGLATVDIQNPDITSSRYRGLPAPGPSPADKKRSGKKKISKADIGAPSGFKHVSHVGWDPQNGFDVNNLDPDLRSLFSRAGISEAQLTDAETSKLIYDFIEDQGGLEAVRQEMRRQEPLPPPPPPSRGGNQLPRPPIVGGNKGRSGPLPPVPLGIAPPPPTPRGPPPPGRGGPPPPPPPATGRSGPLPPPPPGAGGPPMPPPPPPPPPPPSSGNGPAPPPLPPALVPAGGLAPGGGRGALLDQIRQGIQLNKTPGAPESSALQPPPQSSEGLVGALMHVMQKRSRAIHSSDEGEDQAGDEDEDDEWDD
UniProt Q13153: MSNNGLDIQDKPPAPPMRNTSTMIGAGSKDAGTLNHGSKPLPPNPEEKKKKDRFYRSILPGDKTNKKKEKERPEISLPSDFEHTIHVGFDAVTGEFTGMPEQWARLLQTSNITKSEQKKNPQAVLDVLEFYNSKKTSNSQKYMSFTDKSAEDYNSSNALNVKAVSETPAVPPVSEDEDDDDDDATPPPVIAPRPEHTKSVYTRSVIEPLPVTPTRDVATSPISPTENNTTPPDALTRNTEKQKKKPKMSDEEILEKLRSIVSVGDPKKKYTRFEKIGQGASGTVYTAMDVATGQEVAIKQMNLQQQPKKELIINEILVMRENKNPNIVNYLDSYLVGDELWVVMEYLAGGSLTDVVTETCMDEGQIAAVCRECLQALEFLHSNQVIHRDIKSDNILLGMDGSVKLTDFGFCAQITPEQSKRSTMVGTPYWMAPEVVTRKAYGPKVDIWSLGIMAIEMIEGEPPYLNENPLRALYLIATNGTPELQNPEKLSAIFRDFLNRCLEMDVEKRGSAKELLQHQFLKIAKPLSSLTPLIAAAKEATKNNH
UniProt O96013: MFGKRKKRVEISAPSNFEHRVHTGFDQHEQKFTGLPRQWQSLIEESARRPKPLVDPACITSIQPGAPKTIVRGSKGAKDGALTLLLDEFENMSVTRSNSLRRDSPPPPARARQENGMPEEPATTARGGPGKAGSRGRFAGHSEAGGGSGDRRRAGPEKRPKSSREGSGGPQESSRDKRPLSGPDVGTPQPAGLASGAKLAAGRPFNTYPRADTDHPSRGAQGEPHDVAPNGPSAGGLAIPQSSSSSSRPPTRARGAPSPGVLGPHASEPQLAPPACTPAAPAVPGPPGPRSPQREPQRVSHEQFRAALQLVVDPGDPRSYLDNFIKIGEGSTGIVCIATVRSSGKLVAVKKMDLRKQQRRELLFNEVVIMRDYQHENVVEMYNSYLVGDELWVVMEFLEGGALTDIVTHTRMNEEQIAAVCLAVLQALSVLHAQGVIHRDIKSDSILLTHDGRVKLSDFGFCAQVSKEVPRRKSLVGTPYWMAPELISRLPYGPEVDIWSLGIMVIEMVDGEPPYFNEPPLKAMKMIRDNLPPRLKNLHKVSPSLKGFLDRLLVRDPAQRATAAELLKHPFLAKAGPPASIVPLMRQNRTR
UniProt O00401: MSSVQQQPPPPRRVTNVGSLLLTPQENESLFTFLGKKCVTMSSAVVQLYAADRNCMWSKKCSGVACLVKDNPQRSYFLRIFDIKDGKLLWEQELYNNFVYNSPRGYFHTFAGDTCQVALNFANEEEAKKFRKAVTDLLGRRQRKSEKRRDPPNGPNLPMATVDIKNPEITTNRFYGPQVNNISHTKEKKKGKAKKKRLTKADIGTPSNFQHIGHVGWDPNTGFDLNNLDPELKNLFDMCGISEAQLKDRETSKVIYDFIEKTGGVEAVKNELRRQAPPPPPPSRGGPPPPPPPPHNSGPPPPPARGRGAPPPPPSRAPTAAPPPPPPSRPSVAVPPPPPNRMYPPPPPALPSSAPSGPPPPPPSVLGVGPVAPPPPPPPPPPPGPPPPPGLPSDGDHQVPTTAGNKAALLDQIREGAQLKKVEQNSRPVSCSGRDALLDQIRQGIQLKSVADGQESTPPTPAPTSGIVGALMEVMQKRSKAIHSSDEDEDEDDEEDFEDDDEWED
UniProt Q07912: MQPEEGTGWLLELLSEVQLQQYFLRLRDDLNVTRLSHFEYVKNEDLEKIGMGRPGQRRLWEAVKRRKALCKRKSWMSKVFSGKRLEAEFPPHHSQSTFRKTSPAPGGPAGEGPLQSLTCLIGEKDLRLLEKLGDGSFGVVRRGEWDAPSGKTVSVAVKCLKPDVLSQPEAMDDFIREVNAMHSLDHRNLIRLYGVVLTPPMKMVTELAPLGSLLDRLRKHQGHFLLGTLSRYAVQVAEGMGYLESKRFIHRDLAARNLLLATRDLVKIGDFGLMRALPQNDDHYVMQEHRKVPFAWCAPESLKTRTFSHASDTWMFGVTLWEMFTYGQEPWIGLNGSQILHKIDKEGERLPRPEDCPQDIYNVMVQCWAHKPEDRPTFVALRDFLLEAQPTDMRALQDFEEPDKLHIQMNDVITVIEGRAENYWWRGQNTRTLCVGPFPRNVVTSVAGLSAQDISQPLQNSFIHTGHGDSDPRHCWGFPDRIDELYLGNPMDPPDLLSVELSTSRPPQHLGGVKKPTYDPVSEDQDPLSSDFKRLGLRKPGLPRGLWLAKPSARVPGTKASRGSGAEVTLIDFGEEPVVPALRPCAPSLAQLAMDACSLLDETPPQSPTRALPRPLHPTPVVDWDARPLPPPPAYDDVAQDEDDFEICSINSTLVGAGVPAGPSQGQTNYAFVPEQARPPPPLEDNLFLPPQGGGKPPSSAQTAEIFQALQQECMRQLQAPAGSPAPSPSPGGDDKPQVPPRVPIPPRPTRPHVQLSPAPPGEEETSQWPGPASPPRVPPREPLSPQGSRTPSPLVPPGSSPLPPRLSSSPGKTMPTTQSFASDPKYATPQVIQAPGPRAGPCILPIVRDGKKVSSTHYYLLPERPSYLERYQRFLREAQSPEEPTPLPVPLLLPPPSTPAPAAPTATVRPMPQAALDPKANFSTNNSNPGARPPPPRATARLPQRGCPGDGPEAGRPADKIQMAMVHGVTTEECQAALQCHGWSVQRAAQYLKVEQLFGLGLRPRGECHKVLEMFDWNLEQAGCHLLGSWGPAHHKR

How the values were obtained:
[1] = target: H2A–mTurquoise2–RhoA(G14V)ΔCaaX (UniProt P61586); test: nuclear enrichment with a GTPase tethered to the nucleus (spinning disk microscopy); HeLa cells co-expressing H2A–mTurquoise2–Rho GTPase (constitutively active, ΔCaaX) or H2A–mTurquoise2 as control and the fluorescently tagged candidate; ratio of nuclear to cytosolic intensity of the candidate
[2] = target: H2A–mTurquoise2–Cdc42(G12V)ΔCaaX (UniProt P60953); test: as above
[3] = target: TOMM20–mTurquoise2–Cdc42(G12V)ΔCaaX (UniProt P60953); test: partition between a GTPase tethered to mitochondria and one tethered to the nucleus (spinning disk microscopy); HeLa cells co-expressing TOMM20–mTurquoise2–Cdc42(G12V)ΔCaaX, H2A–mTurquoise2–Rac1(G12V)ΔCaaX and the mScarlet-I tagged CRIB; direct competition in cells

Molecule | binding [1] | binding [2] | binding [3]
dimericTomato–WASp(CRIB) (from UniProt P42768 238-251) (domain or fragment) | no binding | – | –
mScarlet-I–WASp(CRIB) (from UniProt P42768 238-251) (domain or fragment) | – | binds | binds
mScarlet-I–Pak1(CRIB) (from UniProt Q13153 75-88) (domain or fragment) | – | binds | binds
ISAPSNFEHRVHTG (domain or fragment, UniProt O96013 11-24) [mScarlet-I–Pak4(CRIB)] | – | binds | binds
IGTPSNFQHIGHVG (domain or fragment, UniProt O00401 203-216) [mScarlet-I–N-WASP(CRIB)] | – | binds | binds
ISQPLQNSFIHTG (domain or fragment, UniProt Q07912 454-466) [mScarlet-I–TNK2(CRIB)] | – | binds | binds

Results are given in words; binding and its absence hold for the method and conditions named. For some assays here: A result given as binding can be weak or reduced; the word gives no strength.
